Structures are written as SMILES. Where a name gives a salt, the structure may show the parent alone. ± gives the standard deviation of the averaged measurements. The list shows a part of the results. These are raw signals, not scaled to a control.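 HeLa cells imaged for ribosome-assembly readouts (ENP1 staining with or without export block, or inducible tagged ribosomal protein reporters); machine learning classified each cell's signal location against solvent (DMSO) controls. Hits exceeded the DMSO false-positive mean by five standard deviations, then were visually confirmed; three biological replicates.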

Results on 27 compounds are retold here after the supplement of paper PMC12542422.

For test [1], the system named is HeLa K (ENP1 immunofluorescence, +LMB). The experiment in a line: fraction of cells with nucleolar or nucleolar/nucleoplasmic ENP1 signal (MainHitrate); higher = more cells with nucleolar/nuclear readout signal (for ENP1 -LMB: less RNAPI inhibition; for +LMB ENP1 and RP reporters: stronger nuclear/nucleolar retention, i.e. ribosome biogenesis defect). Conditions: concentration: 1 µM; treatment time: 6 h; ENP1 +LMB; leptomycin B: 20 nM, last 1.5 h.

Test [2] concerns HeLa K (ENP1 immunofluorescence, no LMB). The description is as above. The conditions noted are these: concentration: 1 µM; treatment time: 6 h; ENP1 -LMB; leptomycin B: none.
The next test relates to HeLa RPS2-YFP reporter. Kind of test: fraction of reporter-positive cells with nuclear (nucleolar or nucleolar/nucleoplasmic) RPS2-YFP (MainHitrate); higher = more cells with nucleolar/nuclear readout signal (for ENP1 -LMB: less RNAPI inhibition; for +LMB ENP1 and RP reporters: stronger nuclear/nucleolar retention, i.e. ribosome biogenesis defect). The conditions noted are these: concentration: 1 µM; treatment time: 6 h.

The subject of another test is HeLa RPL29-GFP reporter. The experiment in a line: fraction of reporter-positive cells with nuclear (nucleolar or nucleolar/nucleoplasmic) RPL29-GFP (MainHitrate); higher = more cells with nucleolar/nuclear readout signal (for ENP1 -LMB: less RNAPI inhibition; for +LMB ENP1 and RP reporters: stronger nuclear/nucleolar retention, i.e. ribosome biogenesis defect). The conditions noted are these: concentration: 1 µM; treatment time: 6 h.

In the case of `CC(C)C[C@H]1C(=O)N2CCC[C@H]2[C@]2(O)O[C@](NC(=O)[C@@H]3C=C4c5cccc6[nH]c(Br)c(c56)C[C@H]4N(C)C3)(C(C)C)C(=O)N12` [Bromocriptine Mesylate], the fraction in test [1] is 0.0799 ± 0.076; in test [2], 0.9985 ± 0.0026. The “fraction of reporter-positive cells with nuclear” value (from here on “fraction … with nuclear”) in the test on HeLa RPS2-YFP reporter worked out at 0.185 ± 0.19; in the test on HeLa RPL29-GFP reporter, 0.289 ± 0.26.

Regarding `C#C[C@]1(O)CC[C@H]2[C@@H]3CCC4=CC(=O)CC[C@]4(C)[C@H]3CC[C@@]21C` [Ethisterone], the fraction was determined as 0.0804 ± 0.11 in test [1] and 0.989 ± 0.019 in test [2]. For the same compound, the “fraction … with nuclear” value in the test on HeLa RPS2-YFP reporter was 0.111 ± 0.11; with HeLa RPL29-GFP reporter, 0.219 ± 0.056.

As to `CNCC(=O)c1ccc(O)c(O)c1` [Adrenalone HCl], the values for the fraction in test [1] and in test [2] were 0.0818 ± 0.11 and 0.989 ± 0.019, respectively. In addition, the “fraction … with nuclear” value with HeLa RPS2-YFP reporter came to 0.124 ± 0.098; with HeLa RPL29-GFP reporter, 0.202 ± 0.054.

`CCCN1C[C@H](CSC)C[C@@H]2c3cccc4[nH]cc(c34)C[C@H]21` [Pergolide mesylate]: the fraction was 0.0838 ± 0.12 in test [1] and 0.981 ± 0.033 in test [2]. Further, the “fraction … with nuclear” value in the test on HeLa RPS2-YFP reporter was found to be 0.119 ± 0.1; in the test on HeLa RPL29-GFP reporter, 0.202 ± 0.066.

For the compound `NCCc1c[nH]c2ccc(O)cc12` [Serotonin HCl], the results for the fraction in test [1] and in test [2] were 0.0665 ± 0.084 and 0.9946 ± 0.0094, respectively. The “fraction … with nuclear” value stood at 0.123 ± 0.089 in the test on HeLa RPS2-YFP reporter and 0.224 ± 0.086 in the test on HeLa RPL29-GFP reporter.

As for `c1ccc2c(c1)sc1ccccc12` [Dibenzothiophene], the results for the fraction in test [1] and in test [2] were 0.0784 ± 0.11 and 0.9944 ± 0.0097, respectively. For the same compound, the “fraction … with nuclear” value was 0.119 ± 0.088 with HeLa RPS2-YFP reporter and 0.243 ± 0.075 with HeLa RPL29-GFP reporter.

With `CN1c2ccccc2C(NCCCCCCC(=O)O)c2ccc(Cl)cc2S1(=O)=O` (stereo not drawn) [Tianeptine sodium], the values for the fraction in test [1] and in test [2] were 0.0724 ± 0.055 and 0.9986 ± 0.0024, respectively. The entries for the “fraction … with nuclear” value in the test on HeLa RPS2-YFP reporter and in the test with HeLa RPL29-GFP reporter were 0.106 ± 0.055 and 0.207 ± 0.087, respectively.

As to `CCC1(C)CC(=O)NC(=O)C1` [Bemegride], the fraction was 0.0706 ± 0.1 in test [1] and 0.992 ± 0.014 in test [2]. The “fraction … with nuclear” value with HeLa RPS2-YFP reporter came to 0.128 ± 0.07; in the test on HeLa RPL29-GFP reporter, 0.233 ± 0.058.

Turning to `Cc1cc(C(C#N)c2ccc(Cl)cc2)c(Cl)cc1NC(=O)c1cc(I)cc(I)c1O` (stereo not drawn) [Closantel Sodium], the fraction in test [1] amounted to 0.0786 ± 0.097; in test [2], 0.992 ± 0.013. Besides, the figures for the “fraction … with nuclear” value with HeLa RPS2-YFP reporter and in the test with HeLa RPL29-GFP reporter were 0.114 ± 0.1 and 0.213 ± 0.071, respectively.

Turning to `C#C[C@]1(O)C=C[C@H]2[C@@H]3CCC4=CC(=O)CC[C@@H]4[C@H]3CC[C@@]21CC` [Gestodene], the values for the fraction in test [1] and in test [2] were 0.0879 ± 0.086 and 0.9985 ± 0.0027, respectively. In addition, the “fraction … with nuclear” value in the test with HeLa RPS2-YFP reporter was found to be 0.137 ± 0.11; in the test with HeLa RPL29-GFP reporter, 0.218 ± 0.055.

Consider `CCC1(c2cccc(O)c2)CCCCN(C)C1` (stereo not drawn) [Meptazinol HCl], for which the fraction in test [1] is 0.0816 ± 0.1; in test [2] it was 0.994 ± 0.011. Besides, the “fraction … with nuclear” value is 0.141 ± 0.072 in the test with HeLa RPS2-YFP reporter and 0.205 ± 0.072 in the test on HeLa RPL29-GFP reporter.

For `CN1[C@@H]2C[C@@H](OC(=O)[C@H](CO)c3ccccc3)C[C@H]1[C@@H]1O[C@@H]12` [Scopolamine hydrobromide], the fraction in test [1] turned out to be 0.11 ± 0.15; in test [2], 0.9969 ± 0.0054. Moreover, the “fraction … with nuclear” value with HeLa RPS2-YFP reporter worked out at 0.136 ± 0.064; in the test on HeLa RPL29-GFP reporter, 0.24 ± 0.068.

For `CCOC(=O)c1cncn1[C@H](C)c1ccccc1` [Etomidate], the fraction in test [1] was found to be 0.0552 ± 0.05; in test [2], 0.997 ± 0.0053. Also, the “fraction … with nuclear” value in the test on HeLa RPS2-YFP reporter worked out at 0.103 ± 0.074; in the test with HeLa RPL29-GFP reporter it was 0.212 ± 0.056.

Turning to `CC1C=CC=CCCC=CC=CC=CC=CC(OC2OC(C)C(O)C(N)C2O)CC2OC(O)(CC(O)C(O)CCC(O)CC(O)CC(O)CC(=O)OC(C)C(C)C1O)CC(O)C2C(=O)O` (stereo not drawn) [Nystatin (Mycostatin)], the fraction in test [1] stood at 0.114 ± 0.17; in test [2] it was 0.994 ± 0.01. Also, the figures for the “fraction … with nuclear” value in the test with HeLa RPS2-YFP reporter and in the test with HeLa RPL29-GFP reporter were 0.123 ± 0.075 and 0.236 ± 0.086, respectively.

With `CN1CCc2cc3c(cc2C1O)OCO3` (stereo not drawn) [Hydrastinine HCl], the fraction in test [1] worked out at 0.185 ± 0.23; in test [2], 0.9985 ± 0.0026. Further, the “fraction … with nuclear” value in the test on HeLa RPS2-YFP reporter was found to be 0.17 ± 0.12; with HeLa RPL29-GFP reporter, 0.263 ± 0.18.

In the case of `O=c1[nH]c2ccccc2n1C1CCN(CCCC(c2ccc(F)cc2)c2ccc(F)cc2)CC1` [Pimozide], the results for the fraction in test [1] and in test [2] were 0.156 ± 0.22 and 0.924 ± 0.13, respectively. In addition, the “fraction … with nuclear” value in the test on HeLa RPS2-YFP reporter came to 0.216 ± 0.18; in the test with HeLa RPL29-GFP reporter, 0.253 ± 0.16.

Take `CN1[C@@H]2CC[C@H]1C[C@@H](OC(=O)[C@H](CO)c1ccccc1)C2` [Hyoscyamine (Daturine)]: the fraction was determined as 0.0527 ± 0.069 in test [1] and 0.9946 ± 0.0094 in test [2]. Also, the “fraction … with nuclear” value in the test on HeLa RPS2-YFP reporter is 0.134 ± 0.11; with HeLa RPL29-GFP reporter, 0.214 ± 0.085.

Regarding `CNC(=O)Oc1ccc2c(c1)[C@]1(C)CCN(C)[C@@H]1N2C` [Physostigmine Hemisulfate Salt], the figures for the fraction in test [1] and in test [2] were 0.0971 ± 0.12 and 0.9974 ± 0.0045, respectively. Further, the “fraction … with nuclear” value came out at 0.142 ± 0.11 in the test with HeLa RPS2-YFP reporter and 0.334 ± 0.18 with HeLa RPL29-GFP reporter.

For the compound `CCC1(c2ccc(N)cc2)CCC(=O)NC1=O` (stereo not drawn) [Aminoglutethimide (Cytadren)], the fraction in test [1] worked out at 0.0468 ± 0.038; in test [2], 0.9992 ± 0.0014. The “fraction … with nuclear” value with HeLa RPS2-YFP reporter is 0.0626 ± 0.0077; in the test on HeLa RPL29-GFP reporter, 0.216 ± 0.013.

In the case of `Cn1c(CCCC(=O)O)nc2cc(N(CCCl)CCCl)ccc21` [Bendamustine HCL], the fraction in test [1] came to 0.0781 ± 0.083; in test [2], 0.9977 ± 0.004. Moreover, the “fraction … with nuclear” value with HeLa RPS2-YFP reporter worked out at 0.114 ± 0.07; in the test on HeLa RPL29-GFP reporter it was 0.204 ± 0.056.

With `O=C(O)c1nn(Cc2ccc(Cl)cc2Cl)c2ccccc12` [Lonidamine], the fraction was determined as 0.133 ± 0.18 in test [1] and 0.9963 ± 0.0064 in test [2]. The entries for the “fraction … with nuclear” value in the test with HeLa RPS2-YFP reporter and in the test with HeLa RPL29-GFP reporter were 0.127 ± 0.11 and 0.212 ± 0.081, respectively.

Consider `CNC1CC(N)C(O)C(OC2OC(CO)C(O)C3OC4(OC(C(N)CO)C(O)C(O)C4O)OC23)C1O` (stereo not drawn) [Hygromycin B], for which the fraction in test [1] came to 0.117 ± 0.17; in test [2] it was 0.976 ± 0.042. For the same compound, the entries for the “fraction … with nuclear” value in the test with HeLa RPS2-YFP reporter and in the test with HeLa RPL29-GFP reporter were 0.111 ± 0.087 and 0.209 ± 0.066, respectively.

In the case of `CC(=O)OC1CN2CCC1CC2` (stereo not drawn) [Aceclidine HCl], the fraction in test [1] was determined as 0.206 ± 0.3; in test [2], 0.9977 ± 0.0039. In addition, the “fraction … with nuclear” value was determined as 0.221 ± 0.14 with HeLa RPS2-YFP reporter and 0.405 ± 0.23 in the test with HeLa RPL29-GFP reporter.

For the compound `NCC1(CC(=O)O)CCCCC1` [Gabapentin (Neurontin)], the fraction in test [1] was 0.107 ± 0.14; in test [2], 0.993 ± 0.013. Besides, the “fraction … with nuclear” value in the test on HeLa RPS2-YFP reporter worked out at 0.125 ± 0.074; in the test on HeLa RPL29-GFP reporter, 0.229 ± 0.059.

Turning to `CC(NC(C)(C)C)C(=O)c1cccc(Cl)c1` (stereo not drawn) [Amfebutamone (Bupropion)], the fraction in test [1] amounted to 0.131 ± 0.2; in test [2], 0.9957 ± 0.0075. The “fraction … with nuclear” value in the test on HeLa RPS2-YFP reporter is 0.115 ± 0.067; in the test with HeLa RPL29-GFP reporter it was 0.231 ± 0.097.

`Cc1cccc(C)c1NC1=NCCCS1` [Xylazine HCl]: the fraction in test [1] was determined as 0.109 ± 0.15; in test [2] it was 0.9951 ± 0.0084. Besides, the figures for the “fraction … with nuclear” value in the test with HeLa RPS2-YFP reporter and with HeLa RPL29-GFP reporter were 0.115 ± 0.058 and 0.223 ± 0.094, respectively.

With `CC(=O)O[C@@]12CO[C@@H]1C[C@@H](O)[C@@]1(C)C(=O)[C@H](O)C3=C(C)[C@@H](O)C[C@@](O)([C@@H](OC(=O)c4ccccc4)[C@H]21)C3(C)C` [10-DAB (10-Deacetylbaccatin)], the fraction turned out to be 0.159 ± 0.24 in test [1] and 0.989 ± 0.02 in test [2]. For the same compound, the results for the “fraction … with nuclear” value with HeLa RPS2-YFP reporter and with HeLa RPL29-GFP reporter were 0.118 ± 0.066 and 0.209 ± 0.076, respectively.
